Laboratory results taken from patent US9526721B2, “Tetrahydroprotoberbine compounds and uses thereof in the treatment of neurological, psychiatric and neurodegenerative diseases” (priority 2012, dated 2016).

System: rats
Assay: Microdialysis of prefrontal cortex and nucleus accumbens;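 note: dialysate collected every 10 min from freely moving rats, analysed by HPLC with electrochemical detection, after four stable baseline samples (under 10% variation) preceding drug dosing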
Conditions: 1.0 mg/kg SC

SMILES: COc1cc2c(cc1O)CN1CCc3cc(OC)c(O)cc3C1C2 (racemic) [dl-govadine]
- time of DA peak after injection, NAc: 20 to 30 min
- time of DA peak after injection, PFC: ≤ 10 min
